Measurements: publication doi:10.1101/2020.06.11.146753
These are yes or no findings as the source states them, for the method shown. In cells and extracts the contact can be indirect. A result given as binding can be weak or reduced; the word gives no strength. Where a sequence is shown, tags or fusion partners need not be part of it.

Molecular target: T1, Bt1762 (SusD), C-terminal His6 tag, from the B. theta Bt1762-his strain (Bacteroides thetaiotaomicron VPI-5482) (UniProt Q8A6W4)
T1 sequence (chain, lipid anchor (lipoprotein)): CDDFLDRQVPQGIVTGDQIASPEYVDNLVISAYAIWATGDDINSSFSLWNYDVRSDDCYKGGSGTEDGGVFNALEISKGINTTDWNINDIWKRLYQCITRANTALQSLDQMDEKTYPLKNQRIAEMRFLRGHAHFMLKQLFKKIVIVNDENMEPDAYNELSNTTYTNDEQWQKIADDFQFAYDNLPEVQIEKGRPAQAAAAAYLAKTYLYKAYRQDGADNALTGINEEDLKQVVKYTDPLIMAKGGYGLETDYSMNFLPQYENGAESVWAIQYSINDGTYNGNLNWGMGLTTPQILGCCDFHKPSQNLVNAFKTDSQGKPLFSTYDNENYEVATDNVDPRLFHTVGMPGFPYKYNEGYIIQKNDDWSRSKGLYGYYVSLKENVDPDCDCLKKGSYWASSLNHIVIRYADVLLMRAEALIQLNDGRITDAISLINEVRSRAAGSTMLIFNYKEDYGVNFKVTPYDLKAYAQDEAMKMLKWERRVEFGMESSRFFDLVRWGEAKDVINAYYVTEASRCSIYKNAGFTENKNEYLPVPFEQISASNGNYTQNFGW
Test: co-purification by IMAC, SDS-PAGE

Substance	binding
Bt1763 (SusC) TonB box mut (TonB box mutated to all-Ala) (from UniProt Q8A6W3)	binds
Bt1763 (SusC) ΔNTE (N-terminal extension deleted, Ton box intact) (from UniProt Q8A6W3)	binds
Bt1763 (SusC) ΔTonB box (from UniProt Q8A6W3)	binds
